From the supplement of paper PMC4635364
Where a name gives a salt, the structure may show the parent alone. This is one part of the list. Repeats in this data set agree poorly, so a single value says little.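 Cells: ReNCell VM human fetal ventral-midbrain neural progenitors, differentiated mitogen-free. Blinded raters compared doublecortin-stained (early neurons) or tyrosine hydroxylase-stained (dopaminergic neurons) images with untreated wells, where 0 means no change. After repeats and both raters were averaged, compounds scoring 2 or above became hits for retesting.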

Each compound was assayed on ReNCell VM (assay: neuronal differentiation score (DCX+ cell fraction vs untreated, manual image score) (score (-3 to 3)); higher = more neuronal differentiation). Details: library: LOPAC; 2 uM; 2 weeks.

Neuronal differentiation score, inactive:
Nc1ncnc2c1c(-c1ccc(Oc3ccccc3)cc1)cn2C1CCCC1 0
C[C@H](O)C(=O)C1=Nc2c(nc(N)[nH]c2=O)NC1 [Sepiapterin] 0
COC(=O)C(N)Cc1ccc(Cl)cc1 (racemic) [DL-p-Chlorophenylalanine methyl ester hydrochloride] 0
Cc1ccc(C(=O)Nc2ccc(S(=O)(=O)O)c3cc(S(=O)(=O)O)cc(S(=O)(=O)O)c23)cc1NC(=O)c1cccc(NC(=O)Nc2cccc(C(=O)Nc3cc(C(=O)Nc4ccc(S(=O)(=O)O)c5cc(S(=O)(=O)O)cc(S(=O)(=O)O)c45)ccc3C)c2)c1 [Suramin sodium salt] 0
O=C(c1ccccc1)c1ccc2n1CCC2C(=O)O (stereo not given) [Ketorolac tris salt] 0
CCNC(=O)N1CCN(CCCC(c2ccc(F)cc2)c2ccc(F)cc2)CC1 [Amperozide hydrochloride] 1
COC(=O)C1=C(C)NC(C)=C(C(=O)OC(C)(C)CN(C)CCC(c2ccccc2)c2ccccc2)C1c1cccc([N+](=O)[O-])c1 (stereo not given) [Lercanidipine hydrochloride hemihydrate] 0
NC[C@@H](O)c1ccc(O)c(O)c1 [L(-)-Norepinephrine bitartrate] 0

Same assay, conditions: library: Phytochemical; 2 uM; 2 weeks

Neuronal differentiation score, inactive:
O=C(O)[C@H]1O[C@@H](Oc2cc3oc(-c4ccccc4)cc(=O)c3c(O)c2O)[C@H](O)[C@@H](O)[C@@H]1O [Baicalin] 0
C=C1C[C@@]23CC[C@H]4[C@@](C)(CCC[C@@]4(C)C(=O)O[C@@H]4O[C@H](CO)[C@@H](O)[C@H](O)[C@H]4O)[C@@H]2CC[C@]1(O[C@@H]1O[C@H](CO)[C@@H](O)[C@H](O)[C@H]1O[C@@H]1O[C@H](CO)[C@@H](O)[C@H](O)[C@H]1O)C3 [Stevioside] 0
CC[N+]1(C)C2CCC1CC(OC(=O)C1CCC(C(=O)OC3CC4CCC(C3)[N+]4(C)CC)(c3ccccc3)c3ccccc31)C2 (stereo not drawn) [beta- Belladonnine dichloroethylate] 0

Same assay, conditions: library: Prestwick; 2 uM; 2 weeks

Neuronal differentiation score, inactive:
CC1(C)S[C@@H]2[C@H](NC(=O)[C@H](N)c3ccc(O)cc3)C(=O)N2[C@H]1C(=O)O [Amoxicillin] 0
N[C@@H](C(=O)N[C@@H]1C(=O)N2C(C(=O)O)=C(Cl)CS[C@H]12)c1ccccc1 [Cefaclor hydrate] 0
CCn1cc(C(=O)O)c(=O)c2cc(F)c(N3CCNCC3)nc21 [Enoxacin] 0
COc1c2occc2c(OC)c2c(=O)cc(C)oc12 [Khellin] 0
Nc1nc(=O)c2nc(CNc3ccc(C(=O)N[C@@H](CCC(=O)O)C(=O)O)cc3)cnc2[nH]1 [Folic acid] 0
N#Cc1ccc(C(c2ccc(C#N)cc2)n2cncn2)cc1 [Letrozole] 0

2 records drawn at random from those above, as already listed:
Neuronal differentiation score, inactive:
COc1c2occc2c(OC)c2c(=O)cc(C)oc12 [Khellin] 0
N[C@@H](C(=O)N[C@@H]1C(=O)N2C(C(=O)O)=C(Cl)CS[C@H]12)c1ccccc1 [Cefaclor hydrate] 0

Same assay, conditions: library: Spectrum; 2 uM; 2 weeks

Neuronal differentiation score, inactive:
Cc1noc(NS(=O)(=O)c2ccc(N)cc2)c1C 1
COc1cc2nc(N3CCN(C(=O)C4CCCO4)CC3)nc(N)c2cc1OC (stereo not given) 1
COc1cc2c(cc1OC)C1C(=O)c3c(O)cc4c(c3OC1CO2)C=CC(C)(C)O4 (stereo not drawn) [alpha-TOXICAROL (dl)] 0
O=C1/C(=C/c2cccs2)CCC/C1=C\c1cccs1 0
CCOC(=O)NNc1nncc2ccccc12 0
C[C@H](CCC(=O)NCC(=O)O)[C@H]1CC[C@H]2[C@@H]3[C@H](O)C[C@@H]4C[C@H](O)CC[C@]4(C)[C@H]3C[C@H](O)[C@]12C 0
CNCc1ccccc1 0
CCN(CC)C(C)CN1c2ccccc2Sc2ccccc21 (stereo not given) 0
CN(C)CCOC(c1ccc(Cl)cc1)c1ccccn1 (stereo not given) 0
CCOC(=S)SSC(=S)OCC 0
COc1cc(OC)c(C(C)=O)c(O)c1C 0
CC(C)=CCc1c2c(c3occ(-c4ccc(O)c(O)c4)c(=O)c3c1O)C=CC(C)(C)O2 0
COC1=C(OC)C(=O)C(C/C=C(\C)CC/C=C(\C)CC/C=C(\C)CC/C=C(/C)CC/C=C(\C)CC/C=C(\C)CC/C=C(\C)CC/C=C(\C)CC/C=C(\C)CCC=C(C)C)=C(C)C1=O 0
COc1cccc2c1CCC1CC(=O)CC[C@]21C (stereo not given in full) 0
NC(=O)c1cc[n+](CC2=C(C(=O)O)N3C(=O)[C@@H](NC(=O)[C@@H](c4ccccc4)S(=O)(=O)[O-])[C@H]3SC2)cc1 0
CC(C(=O)O)[C@H]1CCC2C3CC=C4C[C@@H](O)CC[C@]4(C)C3CC[C@@]21C (stereo partly drawn) [3beta-HYDROXY-23,24-BISNORCHOL-5-ENIC ACID] 0
CCCCC(CC)COC(=O)c1ccccc1O (stereo not given) 0
C[C@H]1[C@H](NC(=O)/C(=N\OC(C)(C)C(=O)O)c2csc(N)n2)C(=O)N1S(=O)(=O)O 0
